Measurements taken from the supplement of paper PMC10849652.
The list shows a part of the results.

By UniProt entry, the sequences of proteins in these tests, tags left out. Where a name states a change or a piece, a line headed by the entry shows the natural chain unless it says otherwise.
UniProt Q8NB78: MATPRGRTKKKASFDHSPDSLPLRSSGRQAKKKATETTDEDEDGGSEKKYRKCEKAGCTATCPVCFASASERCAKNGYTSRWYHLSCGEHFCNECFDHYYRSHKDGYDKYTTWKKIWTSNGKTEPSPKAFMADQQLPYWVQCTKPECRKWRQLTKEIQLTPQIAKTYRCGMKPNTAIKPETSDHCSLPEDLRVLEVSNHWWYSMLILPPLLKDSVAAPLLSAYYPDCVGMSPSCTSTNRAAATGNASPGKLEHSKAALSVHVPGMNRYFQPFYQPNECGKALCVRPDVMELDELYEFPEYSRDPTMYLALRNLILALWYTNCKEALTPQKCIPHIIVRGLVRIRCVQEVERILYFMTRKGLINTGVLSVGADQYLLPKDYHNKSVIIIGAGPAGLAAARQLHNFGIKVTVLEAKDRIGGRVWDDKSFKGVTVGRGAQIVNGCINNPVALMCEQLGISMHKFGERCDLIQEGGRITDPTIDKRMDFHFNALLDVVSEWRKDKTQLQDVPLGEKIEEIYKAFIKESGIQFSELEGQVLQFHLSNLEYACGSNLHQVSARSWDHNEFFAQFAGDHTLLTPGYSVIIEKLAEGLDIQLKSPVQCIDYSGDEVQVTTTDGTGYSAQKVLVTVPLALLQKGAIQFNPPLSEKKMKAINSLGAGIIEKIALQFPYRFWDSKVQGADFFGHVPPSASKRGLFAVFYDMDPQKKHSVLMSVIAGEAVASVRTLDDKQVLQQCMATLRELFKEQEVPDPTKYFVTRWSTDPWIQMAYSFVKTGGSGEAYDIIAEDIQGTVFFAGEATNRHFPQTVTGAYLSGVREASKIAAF
UniProt Q96J02: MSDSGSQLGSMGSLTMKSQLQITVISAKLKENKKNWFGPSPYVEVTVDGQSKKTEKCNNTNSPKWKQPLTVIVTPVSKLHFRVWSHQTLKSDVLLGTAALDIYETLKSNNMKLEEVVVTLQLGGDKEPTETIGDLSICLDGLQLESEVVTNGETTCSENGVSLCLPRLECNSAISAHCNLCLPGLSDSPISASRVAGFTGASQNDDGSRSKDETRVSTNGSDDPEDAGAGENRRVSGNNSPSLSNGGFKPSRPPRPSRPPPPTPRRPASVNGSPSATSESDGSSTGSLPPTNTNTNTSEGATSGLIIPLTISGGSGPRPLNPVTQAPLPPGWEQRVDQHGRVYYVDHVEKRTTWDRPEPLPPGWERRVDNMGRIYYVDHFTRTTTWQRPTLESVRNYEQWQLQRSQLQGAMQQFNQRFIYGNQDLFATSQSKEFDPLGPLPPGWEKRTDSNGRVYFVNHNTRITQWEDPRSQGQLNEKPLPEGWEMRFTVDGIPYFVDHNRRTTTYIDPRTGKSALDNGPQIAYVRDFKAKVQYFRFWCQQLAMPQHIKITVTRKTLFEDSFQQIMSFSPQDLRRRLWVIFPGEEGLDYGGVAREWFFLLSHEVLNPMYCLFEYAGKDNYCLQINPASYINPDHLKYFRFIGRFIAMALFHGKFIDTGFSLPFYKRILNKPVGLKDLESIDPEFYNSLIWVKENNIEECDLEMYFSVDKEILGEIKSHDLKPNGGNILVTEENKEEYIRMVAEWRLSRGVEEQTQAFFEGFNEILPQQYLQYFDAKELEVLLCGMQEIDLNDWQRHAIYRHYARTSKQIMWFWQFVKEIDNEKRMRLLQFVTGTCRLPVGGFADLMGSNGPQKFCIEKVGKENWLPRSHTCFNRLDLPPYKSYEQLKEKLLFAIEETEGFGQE
UniProt P33947: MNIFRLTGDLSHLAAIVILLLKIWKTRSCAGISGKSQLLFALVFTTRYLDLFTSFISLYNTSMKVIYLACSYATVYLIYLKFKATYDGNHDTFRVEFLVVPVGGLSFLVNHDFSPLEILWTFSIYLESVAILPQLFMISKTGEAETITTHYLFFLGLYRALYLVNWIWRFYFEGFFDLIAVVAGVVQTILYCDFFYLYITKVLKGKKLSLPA
UniProt Q9H7Z6: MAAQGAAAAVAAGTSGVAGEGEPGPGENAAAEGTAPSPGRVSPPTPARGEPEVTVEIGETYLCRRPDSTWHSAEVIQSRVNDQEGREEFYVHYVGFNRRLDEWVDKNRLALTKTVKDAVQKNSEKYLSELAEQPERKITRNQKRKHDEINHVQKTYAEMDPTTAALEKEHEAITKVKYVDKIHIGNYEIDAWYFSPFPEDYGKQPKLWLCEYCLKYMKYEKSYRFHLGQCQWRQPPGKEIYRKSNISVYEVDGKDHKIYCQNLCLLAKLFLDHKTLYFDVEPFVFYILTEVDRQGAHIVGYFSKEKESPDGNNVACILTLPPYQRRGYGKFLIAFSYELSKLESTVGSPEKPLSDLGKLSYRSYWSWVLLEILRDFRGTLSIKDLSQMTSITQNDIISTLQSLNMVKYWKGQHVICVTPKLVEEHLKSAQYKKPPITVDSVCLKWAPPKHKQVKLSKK
UniProt P05556, whole entry, looked up: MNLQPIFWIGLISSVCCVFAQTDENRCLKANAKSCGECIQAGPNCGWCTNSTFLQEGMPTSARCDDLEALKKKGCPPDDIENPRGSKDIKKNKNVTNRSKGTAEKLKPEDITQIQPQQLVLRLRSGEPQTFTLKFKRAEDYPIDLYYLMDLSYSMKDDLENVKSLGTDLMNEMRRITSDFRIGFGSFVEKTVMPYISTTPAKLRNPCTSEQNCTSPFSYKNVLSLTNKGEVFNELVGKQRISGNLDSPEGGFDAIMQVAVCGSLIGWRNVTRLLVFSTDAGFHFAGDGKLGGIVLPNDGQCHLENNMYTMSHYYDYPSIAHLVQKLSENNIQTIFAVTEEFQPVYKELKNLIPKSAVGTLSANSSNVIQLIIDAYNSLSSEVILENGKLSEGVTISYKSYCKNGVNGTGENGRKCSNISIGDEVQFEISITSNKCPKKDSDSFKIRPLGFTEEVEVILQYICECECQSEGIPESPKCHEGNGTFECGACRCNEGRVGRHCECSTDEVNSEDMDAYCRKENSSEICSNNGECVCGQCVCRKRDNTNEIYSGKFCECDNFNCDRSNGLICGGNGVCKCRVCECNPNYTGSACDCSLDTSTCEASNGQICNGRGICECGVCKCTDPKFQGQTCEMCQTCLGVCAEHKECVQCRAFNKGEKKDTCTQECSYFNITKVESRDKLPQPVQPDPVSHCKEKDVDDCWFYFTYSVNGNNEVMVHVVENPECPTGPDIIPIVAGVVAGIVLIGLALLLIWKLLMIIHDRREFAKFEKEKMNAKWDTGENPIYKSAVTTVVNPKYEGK
UniProt Q7Z5Y7: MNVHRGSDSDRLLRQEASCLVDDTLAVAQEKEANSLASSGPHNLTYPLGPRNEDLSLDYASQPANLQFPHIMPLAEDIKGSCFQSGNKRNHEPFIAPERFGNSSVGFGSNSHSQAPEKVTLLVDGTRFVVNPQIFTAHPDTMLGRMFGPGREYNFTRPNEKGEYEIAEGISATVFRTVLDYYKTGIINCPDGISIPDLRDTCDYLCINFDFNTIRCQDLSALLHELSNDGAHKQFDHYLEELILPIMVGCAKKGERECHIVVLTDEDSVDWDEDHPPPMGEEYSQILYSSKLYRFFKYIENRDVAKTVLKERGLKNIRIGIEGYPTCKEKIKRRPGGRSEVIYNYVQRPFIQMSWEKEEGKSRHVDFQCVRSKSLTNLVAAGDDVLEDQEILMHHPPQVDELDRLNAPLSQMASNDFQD
UniProt Q8WZA9: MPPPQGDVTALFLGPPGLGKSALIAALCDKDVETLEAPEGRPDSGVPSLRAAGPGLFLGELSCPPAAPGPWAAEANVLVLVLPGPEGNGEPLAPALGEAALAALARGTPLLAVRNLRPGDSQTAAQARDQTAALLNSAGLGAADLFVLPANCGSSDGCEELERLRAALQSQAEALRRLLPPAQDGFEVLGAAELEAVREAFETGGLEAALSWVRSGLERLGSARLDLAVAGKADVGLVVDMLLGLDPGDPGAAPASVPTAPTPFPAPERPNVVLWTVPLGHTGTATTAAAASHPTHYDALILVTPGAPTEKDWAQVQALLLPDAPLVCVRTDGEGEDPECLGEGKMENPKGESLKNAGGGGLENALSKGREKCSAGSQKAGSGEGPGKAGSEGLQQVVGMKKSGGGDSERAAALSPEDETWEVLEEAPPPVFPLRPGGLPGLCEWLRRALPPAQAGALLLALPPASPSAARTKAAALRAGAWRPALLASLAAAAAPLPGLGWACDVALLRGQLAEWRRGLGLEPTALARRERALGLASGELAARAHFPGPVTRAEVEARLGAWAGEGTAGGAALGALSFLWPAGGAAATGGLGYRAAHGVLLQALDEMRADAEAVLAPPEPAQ
UniProt P05161, whole entry, looked up: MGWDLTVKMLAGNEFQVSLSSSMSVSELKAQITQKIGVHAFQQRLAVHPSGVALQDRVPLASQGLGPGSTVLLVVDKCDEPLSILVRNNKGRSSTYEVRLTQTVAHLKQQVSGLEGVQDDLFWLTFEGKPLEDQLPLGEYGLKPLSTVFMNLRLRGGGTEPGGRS
UniProt P06756, whole entry, looked up: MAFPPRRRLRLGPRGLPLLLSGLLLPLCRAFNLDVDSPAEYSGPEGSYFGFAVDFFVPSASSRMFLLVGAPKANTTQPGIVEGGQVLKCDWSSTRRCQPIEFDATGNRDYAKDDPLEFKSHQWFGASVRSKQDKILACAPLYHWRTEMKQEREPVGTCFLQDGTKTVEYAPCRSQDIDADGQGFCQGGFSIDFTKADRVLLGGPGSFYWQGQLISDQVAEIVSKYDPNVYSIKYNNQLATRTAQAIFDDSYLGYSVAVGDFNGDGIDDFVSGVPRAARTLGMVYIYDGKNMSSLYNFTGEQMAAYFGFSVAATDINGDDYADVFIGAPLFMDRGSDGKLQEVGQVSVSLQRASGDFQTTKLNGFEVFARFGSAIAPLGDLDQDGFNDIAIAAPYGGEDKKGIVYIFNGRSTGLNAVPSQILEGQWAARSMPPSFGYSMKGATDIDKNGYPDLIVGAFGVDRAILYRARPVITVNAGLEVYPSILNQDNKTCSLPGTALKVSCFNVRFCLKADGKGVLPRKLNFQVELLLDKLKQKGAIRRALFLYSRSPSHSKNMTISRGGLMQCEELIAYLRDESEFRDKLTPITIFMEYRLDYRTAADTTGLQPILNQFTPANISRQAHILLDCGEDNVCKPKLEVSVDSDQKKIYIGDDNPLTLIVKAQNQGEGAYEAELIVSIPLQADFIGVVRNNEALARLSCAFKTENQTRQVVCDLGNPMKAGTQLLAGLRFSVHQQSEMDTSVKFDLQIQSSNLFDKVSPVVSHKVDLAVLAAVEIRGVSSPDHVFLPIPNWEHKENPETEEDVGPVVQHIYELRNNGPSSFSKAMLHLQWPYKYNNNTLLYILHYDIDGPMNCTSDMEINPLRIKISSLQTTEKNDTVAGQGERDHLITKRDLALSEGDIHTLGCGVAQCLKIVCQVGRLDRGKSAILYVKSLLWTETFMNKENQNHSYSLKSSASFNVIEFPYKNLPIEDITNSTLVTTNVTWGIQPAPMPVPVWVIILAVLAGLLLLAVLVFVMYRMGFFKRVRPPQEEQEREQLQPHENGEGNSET
UniProt P23677, whole entry, looked up: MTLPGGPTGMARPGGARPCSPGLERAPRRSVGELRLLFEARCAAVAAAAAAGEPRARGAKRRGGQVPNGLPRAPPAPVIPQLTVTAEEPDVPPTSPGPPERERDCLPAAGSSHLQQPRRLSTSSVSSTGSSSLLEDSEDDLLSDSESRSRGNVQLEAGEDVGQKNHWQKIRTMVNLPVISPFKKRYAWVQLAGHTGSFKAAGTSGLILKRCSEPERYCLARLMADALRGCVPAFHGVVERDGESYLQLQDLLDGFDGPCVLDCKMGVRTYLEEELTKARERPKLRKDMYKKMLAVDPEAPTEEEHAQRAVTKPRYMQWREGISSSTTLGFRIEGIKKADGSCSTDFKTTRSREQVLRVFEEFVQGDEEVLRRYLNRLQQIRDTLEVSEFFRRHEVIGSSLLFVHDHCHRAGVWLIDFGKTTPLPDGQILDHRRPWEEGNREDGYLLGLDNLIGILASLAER
UniProt Q9BUE6: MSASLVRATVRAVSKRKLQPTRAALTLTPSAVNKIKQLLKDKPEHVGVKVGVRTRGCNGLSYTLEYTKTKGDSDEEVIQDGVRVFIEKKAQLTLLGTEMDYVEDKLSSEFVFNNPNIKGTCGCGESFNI
UniProt Q92551: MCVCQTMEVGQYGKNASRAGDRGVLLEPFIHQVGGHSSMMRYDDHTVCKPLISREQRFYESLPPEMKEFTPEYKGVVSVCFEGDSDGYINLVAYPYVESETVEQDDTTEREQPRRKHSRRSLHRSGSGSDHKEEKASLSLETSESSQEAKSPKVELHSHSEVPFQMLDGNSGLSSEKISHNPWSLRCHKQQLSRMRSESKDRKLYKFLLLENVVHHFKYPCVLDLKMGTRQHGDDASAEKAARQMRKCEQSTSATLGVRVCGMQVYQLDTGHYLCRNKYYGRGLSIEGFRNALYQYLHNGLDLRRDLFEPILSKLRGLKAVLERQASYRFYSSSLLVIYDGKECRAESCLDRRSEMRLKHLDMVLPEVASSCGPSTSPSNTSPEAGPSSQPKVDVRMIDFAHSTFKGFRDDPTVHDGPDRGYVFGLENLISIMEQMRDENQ

Tests used:
Assay in all cases: log2 fold change, soluble protein after heating vs DMSO (PISA); higher = thermal stabilisation; K562 lysate, 10 uM; active = over 0.2 and 3.5 SD of the protein, either way, in both replicates (recomputed)
alvocidib = compound: CN1CC[C@H](c2c(O)cc(O)c3c(=O)cc(-c4ccccc4Cl)oc23)[C@H](O)C1 [alvocidib]
Procedure, shortened: (§1)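 Log-two fold change in thermal stability relative to solvent controls is reported from duplicates. For each sample, crude K562 extract from dounce-homogenised pellets in PBS pH 7.4 with 1 mM MgCl2, at 1 mg/mL protein, was treated with 10 μM compound for 30 min. Aliquots heated for 3 min across 48°C-58°C were pooled, brought to 0.5% NP-40 at 4°C and cleared at 21,000xg for 90 min. The supernatant was quantified by TMTpro 16plex LC-MS/MS with channel sums equalised.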

Tubastatin A = compound: CN1CCc2c(c3ccccc3n2Cc2ccc(C(=O)NO)cc2)C1 [Tubastatin A]
Procedure, shortened: as §1

[1] = compound: CNC(=O)C1=CC=CC=C1NC2=NC(=NC=C2Cl)NC3=C(C=C(C=C3)N4CCOCC4)OC
Procedure, shortened: as §1

defactinib = compound: CNC(=O)c1ccc(Nc2ncc(C(F)(F)F)c(NCc3nccnc3N(C)S(C)(=O)=O)n2)cc1 [defactinib]
Procedure, shortened: as §1

[2] = compound: CNc1nc(-c2ccc3c(N)n[nH]c3c2)cc(N2C[C@@H](C(=O)NC3CCCCC3)CC[C@H]2C)n1
Procedure, shortened: as §1

encorafenib = compound: COC(=O)N[C@@H](C)CNc1nccc(-c2cn(C(C)C)nc2-c2cc(Cl)cc(NS(C)(=O)=O)c2F)n1 [encorafenib]
Procedure, shortened: as §1

[3] = compound: COC(=O)[C@H](CCSC)NC(=O)C1=C(C=C(C=C1)NC[C@H](CS)N)C2=CC=CC=C2
Procedure, shortened: as §1

alisertib = compound: COc1cc(Nc2ncc3c(n2)-c2ccc(Cl)cc2C(c2c(F)cccc2OC)=NC3)ccc1C(=O)O [alisertib]
Procedure, shortened: as §1

[4] = compound: COc1cc2nc(-c3cc(F)ccc3O)nc(N[C@@H]3CNC[C@H]3C(C)(C)O)c2cc1OC
Procedure, shortened: as §1

gefitinib = compound: COc1cc2ncnc(Nc3ccc(F)c(Cl)c3)c2cc1OCCCN1CCOCC1 [gefitinib]
Procedure, shortened: as §1

Target | log2 fold change (alvocidib) | log2 fold change (Tubastatin A) | log2 fold change [1] | log2 fold change (defactinib) | log2 fold change [2] | log2 fold change (encorafenib) | log2 fold change [3] | log2 fold change (alisertib) | log2 fold change [4] | log2 fold change (gefitinib)
KDM1B (UniProt Q8NB78) | inactive: -0.066 | inactive: 0.05 | inactive: 0.005 | inactive: 0.088 | inactive: 0.021 | inactive: 0 | inactive: 0.119 | inactive: 0.087 | inactive: -0.009 | inactive: -0.02
IRF2 (UniProt P14316) | inactive: -0.036 | inactive: 0.043 | inactive: 0.034 | inactive: 0.052 | inactive: -0.003 | inactive: -0.018 | inactive: -0.045 | inactive: -0.047 | inactive: -0.061 | inactive: -0.035
IRF2BP2 (UniProt Q7Z5L9) | inactive: -0.008 | inactive: 0.023 | inactive: 0.002 | inactive: 0.035 | inactive: 0.055 | inactive: 0.047 | inactive: -0.063 | inactive: 0.001 | inactive: 0.028 | inactive: -0.024
KAZN isoform 3 (UniProt Q674X7) | inactive: 0.012 | inactive: 0.195 | inactive: -0.005 |  |  |  |  |  |  | 
IQGAP1 (UniProt P46940) | inactive: 0.012 | inactive: -0.025 | inactive: -0.027 | inactive: -0.046 | inactive: -0.013 | inactive: -0.033 | inactive: 0.129 | inactive: -0.003 | inactive: 0.009 | inactive: -0.024
KCTD3 (UniProt Q9Y597) | inactive: 0.007 | inactive: 0.004 | inactive: 0.033 | inactive: -0.029 | inactive: 0 | inactive: -0.003 | inactive: -0.051 | inactive: 0.02 | inactive: 0.01 | inactive: 0.015
ITCH (UniProt Q96J02) | inactive: -0.01 | inactive: -0.012 | inactive: -0.012 | inactive: 0.036 | inactive: -0.024 | inactive: 0.007 | inactive: 0.049 | inactive: 0.007 | inactive: 0.097 | inactive: -0.014
KDELR2 (UniProt P33947) | inactive: -0.071 | inactive: -0.075 | inactive: -0.034 | inactive: -0.069 | inactive: 0.067 | inactive: 0.017 | inactive: 0.103 | inactive: 0.048 | inactive: 0.032 | inactive: 0.06
KAT8 (UniProt Q9H7Z6) | inactive: 0.063 | inactive: -0.006 | inactive: -0.023 | inactive: -0.076 | inactive: -0.012 | inactive: -0.004 | inactive: 0.036 | inactive: 0.023 | inactive: -0.033 | inactive: -0.013
ITPA (UniProt Q9BY32) | inactive: -0.049 | inactive: 0.026 | inactive: -0.028 | inactive: -0.012 | inactive: 0.056 | inactive: -0.032 | inactive: 0.009 | inactive: -0.008 | inactive: 0.053 | inactive: -0.052
IPO13 (UniProt O94829) | inactive: 0.022 | inactive: -0.046 | inactive: 0.005 | inactive: 0 | inactive: 0.021 | inactive: 0.016 | inactive: 0.009 | inactive: -0.01 | inactive: -0.014 | inactive: 0.024
ITGB1 (UniProt P05556) | inactive: -0.007 | inactive: 0.053 | inactive: -0.017 | inactive: 0.016 | inactive: 0.038 | inactive: -0.004 | inactive: -0.029 | inactive: -0.006 | inactive: 0.047 | inactive: -0.012
KCTD20 (UniProt Q7Z5Y7) | inactive: 0.05 | inactive: -0.174 | inactive: 0.01 | inactive: -0.041 | inactive: -0.025 | inactive: -0.165 | inactive: -0.058 | inactive: -0.089 | inactive: -0.095 | inactive: 0.035
JPT1 (UniProt Q9UK76) | inactive: -0.021 | inactive: 0.019 | inactive: 0.026 | inactive: -0.01 | inactive: 0.025 | inactive: -0.046 | inactive: -0.102 | inactive: -0.046 | inactive: 0.007 | inactive: -0.075
KCTD15 (UniProt Q96SI1) | inactive: 0.017 | inactive: -0.04 | inactive: -0.015 | inactive: -0.017 | inactive: -0.049 | inactive: 0.095 | inactive: -0.092 | inactive: -0.065 | inactive: 0.009 | inactive: 0.025
IRGQ (UniProt Q8WZA9) | inactive: -0.018 | inactive: 0.02 | inactive: 0.012 | inactive: 0.002 | inactive: -0.026 | inactive: 0.003 | inactive: 0.02 | inactive: 0.014 | inactive: 0.011 | inactive: -0.025
INTS4 (UniProt Q96HW7) | inactive: 0.006 | inactive: -0.001 | inactive: -0.024 | inactive: -0.023 | inactive: 0.053 | inactive: 0.005 | inactive: -0.006 | inactive: 0.014 | inactive: -0.027 | inactive: -0.024
ITFG2 (UniProt Q969R8) | inactive: -0.027 | inactive: -0.076 | inactive: -0.003 | inactive: 0 | inactive: 0.013 | inactive: 0.008 | inactive: 0.003 | inactive: 0.02 | inactive: 0.016 | inactive: -0.003
ISG15 (UniProt P05161) | inactive: 0.047 | inactive: 0.035 | inactive: 0 | inactive: 0.008 | inactive: 0.001 | inactive: -0.01 | inactive: -0.019 | inactive: 0.023 | inactive: -0.058 | inactive: 0.028
ITGAV (UniProt P06756) | inactive: -0.017 | inactive: 0.051 | inactive: 0.024 | inactive: 0 | inactive: 0.028 | inactive: 0.005 | inactive: -0.027 | inactive: -0.021 | inactive: 0.033 | inactive: -0.03
IQSEC1 (UniProt Q6DN90) | inactive: 0.005 | inactive: -0.032 | inactive: 0.07 | inactive: 0.023 | inactive: -0.033 | inactive: 0.061 | inactive: 0.054 | inactive: 0.105 | inactive: 0.137 | inactive: -0.116
ITPKA (UniProt P23677) | inactive: -0.001 | inactive: -0.194 | inactive: -0.017 | inactive: 0.017 | inactive: 0.015 | inactive: -0.021 | active: 0.375 | inactive: -0.004 | inactive: 0 | inactive: 0.011
ISCA1 isoform 2 (UniProt Q9BUE6) | inactive: 0.103 | inactive: 0.023 | inactive: 0.037 | inactive: 0.092 | inactive: 0.071 | inactive: -0.034 | inactive: -0.003 | inactive: -0.286 | inactive: 0.075 | inactive: -0.025
KAZN (UniProt Q674X7) | inactive: -0.078 | inactive: -0.081 | inactive: -0.027 | inactive: -0.036 | inactive: 0 | inactive: -0.039 | inactive: -0.042 | inactive: 0.009 | inactive: -0.02 | inactive: 0.036
IPO8 (UniProt O15397) | inactive: 0.026 | inactive: -0.017 | inactive: -0.015 | inactive: 0.011 | inactive: -0.014 | inactive: 0.018 | inactive: 0.103 | inactive: -0.001 | inactive: -0.027 | inactive: -0.004
INTS2 (UniProt Q9H0H0) | inactive: 0.014 | inactive: -0.001 | inactive: 0.022 | inactive: 0.065 | inactive: 0.091 | inactive: -0.057 | inactive: 0.097 | inactive: -0.001 | inactive: 0.165 | inactive: -0.039
IWS1 (UniProt Q96ST2) | inactive: -0.003 | inactive: -0.03 | inactive: 0.022 | inactive: 0.005 | inactive: 0.049 | inactive: 0.04 | inactive: -0.047 | inactive: -0.004 | inactive: -0.017 | inactive: -0.008
ISG20L2 (UniProt Q9H9L3) | inactive: -0.058 | inactive: 0.042 | inactive: -0.088 | inactive: -0.108 | inactive: 0.081 | inactive: -0.044 | inactive: 0.034 | inactive: -0.05 | inactive: -0.011 | inactive: 0.092
IP6K1 (UniProt Q92551) | inactive: -0.097 | inactive: -0.126 | inactive: 0.088 | inactive: -0.041 | inactive: -0.038 | inactive: 0 | inactive: 0.235 | inactive: -0.045 | inactive: 0.068 | inactive: -0.018
KCT2 (UniProt Q8NC54) | inactive: -0.137 | inactive: 0.029 | inactive: -0.001 | inactive: -0.012 | inactive: 0.013 | inactive: 0.031 | inactive: -0.035 | inactive: 0.077 | inactive: 0 | inactive: -0.037

Reprinted from the listing (two entries):
Target | log2 fold change (alvocidib) | log2 fold change (Tubastatin A) | log2 fold change [1] | log2 fold change (defactinib) | log2 fold change [2] | log2 fold change (encorafenib) | log2 fold change [3] | log2 fold change (alisertib) | log2 fold change [4] | log2 fold change (gefitinib)
ISG20L2 (UniProt Q9H9L3) | inactive: -0.058 | inactive: 0.042 | inactive: -0.088 | inactive: -0.108 | inactive: 0.081 | inactive: -0.044 | inactive: 0.034 | inactive: -0.05 | inactive: -0.011 | inactive: 0.092
IP6K1 (UniProt Q92551) | inactive: -0.097 | inactive: -0.126 | inactive: 0.088 | inactive: -0.041 | inactive: -0.038 | inactive: 0 | inactive: 0.235 | inactive: -0.045 | inactive: 0.068 | inactive: -0.018
